Results taken from PMC8495400.
These are yes or no findings as the source states them, for the method shown. Binding seen in cells or lysates may run through a third protein. Some entries that bind do so weakly or less than the wild type.

Protein sequences, listed by entry. Tags and fused reporters are not part of them. Residues count along the entry.
UniProt P22415: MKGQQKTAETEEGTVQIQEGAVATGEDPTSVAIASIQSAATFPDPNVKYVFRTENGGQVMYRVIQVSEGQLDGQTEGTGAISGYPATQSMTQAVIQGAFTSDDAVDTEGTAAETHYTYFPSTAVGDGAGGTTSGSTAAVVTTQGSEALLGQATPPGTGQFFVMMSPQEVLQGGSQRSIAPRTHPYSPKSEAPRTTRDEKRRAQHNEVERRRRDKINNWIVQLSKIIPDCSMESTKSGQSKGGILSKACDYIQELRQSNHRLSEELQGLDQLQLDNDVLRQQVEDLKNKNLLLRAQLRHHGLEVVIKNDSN
UniProt Q16665: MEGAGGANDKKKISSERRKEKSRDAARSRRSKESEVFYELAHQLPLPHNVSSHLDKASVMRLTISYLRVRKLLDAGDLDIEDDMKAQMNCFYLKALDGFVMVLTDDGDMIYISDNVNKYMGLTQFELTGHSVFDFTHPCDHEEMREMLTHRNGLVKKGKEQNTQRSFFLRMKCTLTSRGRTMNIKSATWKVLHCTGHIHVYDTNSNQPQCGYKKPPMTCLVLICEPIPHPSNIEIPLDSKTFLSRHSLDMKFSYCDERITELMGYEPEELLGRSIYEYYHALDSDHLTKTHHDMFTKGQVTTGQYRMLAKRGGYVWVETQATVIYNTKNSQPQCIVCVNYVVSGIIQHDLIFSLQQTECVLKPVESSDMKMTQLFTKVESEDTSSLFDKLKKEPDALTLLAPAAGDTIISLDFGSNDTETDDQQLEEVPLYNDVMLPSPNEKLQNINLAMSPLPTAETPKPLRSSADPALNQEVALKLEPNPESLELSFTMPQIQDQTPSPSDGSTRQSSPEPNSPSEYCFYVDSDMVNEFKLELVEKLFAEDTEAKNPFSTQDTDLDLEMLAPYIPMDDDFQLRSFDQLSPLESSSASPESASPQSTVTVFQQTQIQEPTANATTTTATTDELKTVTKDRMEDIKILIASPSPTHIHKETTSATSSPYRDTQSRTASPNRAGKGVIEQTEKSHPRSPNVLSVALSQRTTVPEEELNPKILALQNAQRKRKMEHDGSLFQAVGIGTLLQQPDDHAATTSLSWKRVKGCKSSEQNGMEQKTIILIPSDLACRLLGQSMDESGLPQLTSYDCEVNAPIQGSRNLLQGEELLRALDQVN
UniProt Q13443, residues 29-819: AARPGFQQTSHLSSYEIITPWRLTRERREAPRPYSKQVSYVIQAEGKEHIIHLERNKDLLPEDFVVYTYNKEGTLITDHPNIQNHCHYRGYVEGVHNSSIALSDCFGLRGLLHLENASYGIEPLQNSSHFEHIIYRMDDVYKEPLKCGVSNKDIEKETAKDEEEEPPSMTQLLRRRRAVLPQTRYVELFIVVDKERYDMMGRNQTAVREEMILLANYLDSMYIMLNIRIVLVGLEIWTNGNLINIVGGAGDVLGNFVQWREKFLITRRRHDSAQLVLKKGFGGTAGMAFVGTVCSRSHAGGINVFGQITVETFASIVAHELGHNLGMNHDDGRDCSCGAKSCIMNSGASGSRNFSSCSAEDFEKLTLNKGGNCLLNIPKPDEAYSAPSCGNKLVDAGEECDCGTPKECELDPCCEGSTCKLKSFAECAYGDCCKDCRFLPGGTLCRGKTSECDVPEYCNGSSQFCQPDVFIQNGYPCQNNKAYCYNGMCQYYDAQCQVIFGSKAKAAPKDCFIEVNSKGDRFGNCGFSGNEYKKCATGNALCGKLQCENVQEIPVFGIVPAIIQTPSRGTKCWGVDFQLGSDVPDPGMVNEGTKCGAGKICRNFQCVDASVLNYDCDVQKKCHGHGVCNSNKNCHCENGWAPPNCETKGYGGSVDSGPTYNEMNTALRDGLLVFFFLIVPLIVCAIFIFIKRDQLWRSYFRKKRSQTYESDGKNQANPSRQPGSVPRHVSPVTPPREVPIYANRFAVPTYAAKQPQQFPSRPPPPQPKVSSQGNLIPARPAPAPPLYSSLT

Assays:
Test in all cases: proximity ligation; Duolink In situ Red Starter Kit on fixed KYSE170 cells, normoxia and hypoxia; two primary antibodies (ADAM9 and the transcription factor); signals counted in the whole cell and the nucleus
[1] = biological target: upstream transcription factor 1 (human (endogenous in KYSE170)) (UniProt P22415)
[2] = biological target: hypoxia inducible factor 1 subunit alpha (human (endogenous in KYSE170)) (UniProt Q16665)
[3] = biological target: TP53 (human (endogenous in KYSE170)) (UniProt P04637)

binding [1]: binds
binding [2]: binds
binding [3]: binds
Substance: a disintegrin and metalloprotease 9 (from UniProt Q13443 29-819)
